Substitutions are numbered along the chain they refer to. The exact form of at least one protein or probe is not confirmed. For part of these data: Weaker means in comparison with the reference protein, sequence or condition of that experiment. For part of these data: At least one verdict was read from the data and is not stated in words by the source. For part of these data: Tags and fusion partners may be left off the protein sequences shown.
Assays:
DDX41 full-length = DDX41 full-length (UniProt Q9UJV9); test: fluorescence polarization; conditions: FP: 20 nM oligo, 20 mM HEPES pH 7.0, 100 mM NaCl, 5% glycerol, 20 C, recombinant protein, residues 1-622, protein details: N-terminal His6-3C, cleaved off with 3C protease
HBD-WKK W43A,K59A,K60A [1] = molecular target: T1, HBD-WKK W43A,K59A,K60A (UniProt O60930); test: EMSA; conditions: 25 uM protein; EMSA: 20 nM oligo, 20 mM Tris-Cl pH 7.5, 150 mM NaCl, 10% glycerol, 1 mM EDTA, 1 mM DTT, room temperature; recombinant protein; residues 27-76; protein details: His6-GST-3C cleaved off, AVI-tag; label: 6-FAM at 3' end of fw strand; DNA:RNA hybrid; letters put together from the description
T1 sequence (looked up): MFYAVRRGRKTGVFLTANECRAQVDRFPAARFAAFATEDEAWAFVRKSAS

Chains of the proteins cited; added tags and fusions are not shown. Lines headed by an entry give the natural chain unless they say otherwise; changes in a name come on top. Residues count along the entry.
UniProt Q9UJV9: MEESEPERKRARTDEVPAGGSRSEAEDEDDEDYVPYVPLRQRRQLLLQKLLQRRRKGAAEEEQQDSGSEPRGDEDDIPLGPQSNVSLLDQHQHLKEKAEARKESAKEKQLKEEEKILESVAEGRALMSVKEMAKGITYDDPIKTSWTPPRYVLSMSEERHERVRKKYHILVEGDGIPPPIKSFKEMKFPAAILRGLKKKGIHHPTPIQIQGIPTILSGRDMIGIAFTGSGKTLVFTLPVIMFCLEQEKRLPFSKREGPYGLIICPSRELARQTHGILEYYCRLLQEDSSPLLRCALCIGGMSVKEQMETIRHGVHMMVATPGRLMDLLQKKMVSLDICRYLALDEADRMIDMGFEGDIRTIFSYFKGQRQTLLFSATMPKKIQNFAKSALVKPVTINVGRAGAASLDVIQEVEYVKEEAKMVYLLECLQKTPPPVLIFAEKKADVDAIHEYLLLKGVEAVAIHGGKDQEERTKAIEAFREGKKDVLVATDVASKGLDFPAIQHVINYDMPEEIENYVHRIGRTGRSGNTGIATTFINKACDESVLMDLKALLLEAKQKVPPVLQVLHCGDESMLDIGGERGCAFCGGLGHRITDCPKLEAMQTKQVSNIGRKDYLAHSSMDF
UniProt O60930, 27-76: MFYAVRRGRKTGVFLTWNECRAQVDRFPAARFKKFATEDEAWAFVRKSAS

[2] = molecular target: T2, RNase H1 hybrid-binding domain (HBD) (UniProt O60930); test: EMSA; conditions: 25 uM protein; EMSA: 20 nM oligo, 20 mM Tris-Cl pH 7.5, 150 mM NaCl, 10% glycerol, 1 mM EDTA, 1 mM DTT, room temperature; recombinant protein; residues 27-76; protein details: His6-GST-3C cleaved off, AVI-tag; label: 6-FAM at 3' end of fw strand; DNA:RNA hybrid; letters put together from the description
T2 sequence (looked up): T1 sequence (looked up) with A17W, A33K, A34K

HBD-WKK W43A,K59A,K60A [3] = molecular target: T1, HBD-WKK W43A,K59A,K60A; test: fluorescence polarization; conditions: FP: 20 nM oligo, 20 mM HEPES pH 7.0, 100 mM NaCl, 5% glycerol, 20 C; recombinant protein; residues 27-76; protein details: His6-GST-3C cleaved off, AVI-tag; label: 6-FAM at 3' end of fw strand; DNA:RNA hybrid; letters put together from the description
[4] = molecular target: T2, RNase H1 hybrid-binding domain (HBD); test: fluorescence polarization; conditions: FP: 20 nM oligo, 20 mM HEPES pH 7.0, 100 mM NaCl, 5% glycerol, 20 C; recombinant protein; residues 27-76; protein details: His6-GST-3C cleaved off, AVI-tag; label: 6-FAM at 3' end of fw strand; DNA:RNA hybrid; letters put together from the description

**Q.** Does “GACACCTGATTC (double strand) [dsDNA 12-mer]” bind (DDX41 full-length; label: 6-FAM at 3' end of fw strand)?
**A.** Result: binds more weakly

**Q.** Does “GACACCTGATTC / GAAUCAGGUGUC [RNA-DNA hybrid 12-mer]” bind (HBD-WKK W43A,K59A,K60A [1])?
**A.** Result: binds more weakly

**Q.** Does “GACACCTGATTC / GAAUCAGGUGUC [RNA-DNA hybrid 12-mer]” bind [2]?
**A.** Result: binds

**Q.** And the Kd (DDX41 full-length; label: 6-FAM at 3' end of fw strand, DNA:RNA hybrid, letters put together from the description)?
**A.** Its Kd is 2500 nM.

**Q.** Does “GACACCTGATTC / GAAUCAGGUGUC [RNA-DNA hybrid 12-mer]” bind (HBD-WKK W43A,K59A,K60A [3])?
**A.** Result: binds more weakly

**Q.** What about the Kd [4] of the same sequence?
**A.** Its Kd is 190 nM.

**Q.** Does GACACCTGATTC [ssDNA 12-mer] bind (DDX41 full-length; label: 3' 6-FAM, single-stranded DNA)?
**A.** Result: binds more weakly

**Q.** Does “GACACCUGAUUC / GAAUCAGGUGUC [dsRNA 12-mer]” bind (DDX41 full-length; label: 6-FAM at 3' end of fw strand, letters put together from the description)?
**A.** Result: binds more weakly

**Q.** Does GACACCUGAUUC [ssRNA 12-mer] bind (DDX41 full-length; label: 3' 6-FAM, letters put together from the description)?
**A.** Result: binds more weakly
